Test results published in patent US7750017B2, “Heterocycles” (Bayer Schering Pharma Aktiengesellschaft, priority 2004, dated 2010).
Where a name gives a salt, the structure may show the parent alone. Read-outs that look alike come from different tables or passages of the source. Some of these results come from one statement about several compounds together. At least one structure is not confirmed: it was looked up by name or label, or the drawing left a doubt.

What was measured:
[1] = system: A431 cells [human epidermoid carcinoma, overexpressing HER1 (EGFR, ErbB1)]; assay: In vitro tumor cell proliferation assay (Cell Titer-Glo luminescent cell viability), A431 cells; format: cell-based; details: 72 hours of drug exposure, Cell Titer-Glo readout, read-out: IC50, anti-proliferative activity in A431 cells
From the text: (§1) The utility of the compounds of the present invention can be illustrated, for example, by their activity in vitro in the in vitro tumor cell proliferation assay described below. The link between activity in tumor cell proliferation assays in vitro and anti-tumor activity in the clinical setting has been very well established in the art.
(§2) The following assay is one of the methods by which compound activity relating to treatment of the disorders identified herein can be determined.
(§3) The tumor cell proliferation assay used to test the compounds of the present invention involves a readout called Cell Titer-Glow® Luminescent Cell Viability Assay developed by Promega® (Cunningham, B A “A Growing Issue: Cell Proliferation Assays, Modern kits ease quantification of cell growth” The Scientist 2001, 15(13), 26, and Crouch, S P et al., “The use of ATP bioluminescence as a measure of cell proliferation and cytotoxicity” Journal of Immunological Methods 1993, 160, 81-88), that measures inhibition of cell proliferation. Generation of a luminescent signal corresponds to the amount of ATP present, which is directly proportional to the number of metabolically active (proliferating) cells. […]

[2] = system: BT474 [human breast carcinoma, overexpressing HER2 (ErbB2)]; assay: In vitro tumor cell proliferation assay (Cell Titer-Glo luminescent cell viability), BT474 cells; format: cell-based; details: 72 hours of drug exposure, Cell Titer-Glo readout
From the text: as §1, §2, §3

SMILES: OCCOCCNc1ccc2c(c1)sc1ncnc(Nc3ccc(OCc4ccccn4)c(Cl)c3)c12 [Example 80, 2-{2-[(4-{[3-chloro-4-(pyridin-2-ylmethoxy)phenyl]amino}[1]benzothieno[2,3-d]pyrimidin-7-yl)amino]ethoxy}ethanol trifluoroacetate (salt)]
- IC50 [1]: ≤ 50 µM
- IC50 ([2]; listed as example 80, read-out: IC50, anti-proliferative activity in BT474 cells): ≤ 5 µM
- IC50 ([2]; read-out: IC50, anti-proliferative activity in BT474 cells): ≤ 0.5 µM
